Only a part is listed here, and it is no random draw. The source made the active and inactive calls.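 The calls were made as follows: active = inhibition of 40% or more; inactive = the rest.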

The chains behind the UniProt entries cited, without tags or fusion partners.
UniProt Q9Y337, whole entry, looked up: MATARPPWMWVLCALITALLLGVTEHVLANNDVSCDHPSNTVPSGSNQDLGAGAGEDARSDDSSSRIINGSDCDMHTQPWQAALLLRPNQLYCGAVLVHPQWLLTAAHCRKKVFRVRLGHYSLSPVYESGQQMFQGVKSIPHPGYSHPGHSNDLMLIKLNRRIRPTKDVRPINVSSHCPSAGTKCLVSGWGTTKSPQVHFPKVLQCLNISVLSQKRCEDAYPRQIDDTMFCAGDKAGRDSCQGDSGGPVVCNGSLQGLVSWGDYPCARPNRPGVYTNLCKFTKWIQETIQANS

The assay deals with Kallikrein-5 (Homo sapiens) (UniProt Q9Y337). The experiment in a line: human KLK5 protease inhibitors, primary screen, biochemical, 1536-well (AID 873).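 Also: 0% = enzyme controls without compound and 100% = no-enzyme blanks.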 To be noted: recombinant hK5, fluorogenic AMC substrate cleavage; at 5 µM; hits give high values.
By inhibition is commonly meant the share of the control response that was lost under treatment. In the case of `Cc1c(-c2ccc(F)cc2)nc(N)c(C#N)c1-c1cccnc1`, the inhibition is active: 42%. The same measure for `CCOCCCNC(=S)NCCCNc1nc2c(C)c(C)ccc2cc1C#N`: active: 47.9%.

The record behind these values is PubChem BioAssay AID873 (PCMD, 2007).
